Our source for the binding values is article PMC11006747.

Sequences of proteins named here, by UniProt entry; tags and fusion partners are left off. A change or cut given only in a name is not applied to a line headed by its entry. A line that says so, or that is headed by a name, gives the form on record, which may keep a tag or linker.
UniProt P17302: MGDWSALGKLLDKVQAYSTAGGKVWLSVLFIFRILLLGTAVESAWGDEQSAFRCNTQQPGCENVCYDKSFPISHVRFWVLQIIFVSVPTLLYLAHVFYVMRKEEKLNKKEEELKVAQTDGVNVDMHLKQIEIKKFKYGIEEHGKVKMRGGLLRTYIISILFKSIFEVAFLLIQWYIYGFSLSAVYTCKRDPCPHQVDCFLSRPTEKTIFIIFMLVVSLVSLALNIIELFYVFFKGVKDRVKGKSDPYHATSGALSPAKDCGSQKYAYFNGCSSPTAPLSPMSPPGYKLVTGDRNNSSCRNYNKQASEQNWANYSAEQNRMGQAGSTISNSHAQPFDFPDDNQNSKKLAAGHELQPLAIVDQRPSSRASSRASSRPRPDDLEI
HA-ITCH-wild type (Q96J02-2, form named): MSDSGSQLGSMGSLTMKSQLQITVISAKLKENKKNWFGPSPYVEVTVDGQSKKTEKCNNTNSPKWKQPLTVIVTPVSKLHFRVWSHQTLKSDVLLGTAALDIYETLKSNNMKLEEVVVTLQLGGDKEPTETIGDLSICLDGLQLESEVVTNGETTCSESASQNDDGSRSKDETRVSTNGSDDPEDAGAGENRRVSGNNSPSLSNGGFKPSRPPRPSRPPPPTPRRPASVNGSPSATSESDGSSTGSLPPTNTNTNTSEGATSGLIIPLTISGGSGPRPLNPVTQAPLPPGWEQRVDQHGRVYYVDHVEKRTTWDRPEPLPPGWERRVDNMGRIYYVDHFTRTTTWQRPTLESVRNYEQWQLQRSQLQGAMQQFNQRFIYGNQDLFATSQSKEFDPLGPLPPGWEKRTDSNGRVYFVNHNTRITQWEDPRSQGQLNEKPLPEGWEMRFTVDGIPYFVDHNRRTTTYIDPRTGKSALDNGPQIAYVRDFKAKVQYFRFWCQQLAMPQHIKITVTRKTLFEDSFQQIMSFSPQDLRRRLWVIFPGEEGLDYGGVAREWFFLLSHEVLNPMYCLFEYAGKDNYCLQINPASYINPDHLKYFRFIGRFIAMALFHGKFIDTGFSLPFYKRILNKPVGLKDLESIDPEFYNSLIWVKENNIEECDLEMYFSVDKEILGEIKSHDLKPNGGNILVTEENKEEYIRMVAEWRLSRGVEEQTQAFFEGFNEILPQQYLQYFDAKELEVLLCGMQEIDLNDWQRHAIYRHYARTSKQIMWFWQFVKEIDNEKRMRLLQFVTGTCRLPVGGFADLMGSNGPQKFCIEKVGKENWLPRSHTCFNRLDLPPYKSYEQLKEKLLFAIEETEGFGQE

The experiment addresses Cx43-WT (human connexin43, transiently expressed) (human) (UniProt P17302). The experiment can be described thus: co-IP; lysates of HeLa cells negative for Cx43, co-transfected 48 h with Cx43-WT or Cx43-P283A and HA-ITCH-WT, immunoprecipitated with anti-Cx43 antibodies cross-linked to protein A-Sepharose, 2 h at 4 °C; HA-ITCH detected by western blot with anti-HA and normalised to Cx43 in the immunoprecipitate; in one experiment cells treated with DMSO or bafilomycin A1 (200 nM) for the last 18 h; rabbit IgG as control.

No constants are given. Whether binding was seen depends on the method and setting. In cells and extracts the contact can be indirect. Some results given as binding are weak or reduced against the parent protein; the word gives no strength.

As for “HA-ITCH-wild type (from UniProt Q96J02-2 1-862) (enzyme)”, the binding result is “binds”.
